Measurements reported in the supplement of paper PMC10849652.
This is one part of the list.

Protein sequences, listed by entry. Tags and fused reporters are not part of them. Lines headed by an entry give the natural chain unless they say otherwise; changes in a name come on top.
UniProt Q969Q5: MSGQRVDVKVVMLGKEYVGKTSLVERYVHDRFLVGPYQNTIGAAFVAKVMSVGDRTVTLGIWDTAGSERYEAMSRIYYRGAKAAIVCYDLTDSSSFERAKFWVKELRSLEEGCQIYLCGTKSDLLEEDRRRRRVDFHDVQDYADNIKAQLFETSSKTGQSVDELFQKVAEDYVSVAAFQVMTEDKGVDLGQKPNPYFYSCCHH
UniProt Q9Y3P9: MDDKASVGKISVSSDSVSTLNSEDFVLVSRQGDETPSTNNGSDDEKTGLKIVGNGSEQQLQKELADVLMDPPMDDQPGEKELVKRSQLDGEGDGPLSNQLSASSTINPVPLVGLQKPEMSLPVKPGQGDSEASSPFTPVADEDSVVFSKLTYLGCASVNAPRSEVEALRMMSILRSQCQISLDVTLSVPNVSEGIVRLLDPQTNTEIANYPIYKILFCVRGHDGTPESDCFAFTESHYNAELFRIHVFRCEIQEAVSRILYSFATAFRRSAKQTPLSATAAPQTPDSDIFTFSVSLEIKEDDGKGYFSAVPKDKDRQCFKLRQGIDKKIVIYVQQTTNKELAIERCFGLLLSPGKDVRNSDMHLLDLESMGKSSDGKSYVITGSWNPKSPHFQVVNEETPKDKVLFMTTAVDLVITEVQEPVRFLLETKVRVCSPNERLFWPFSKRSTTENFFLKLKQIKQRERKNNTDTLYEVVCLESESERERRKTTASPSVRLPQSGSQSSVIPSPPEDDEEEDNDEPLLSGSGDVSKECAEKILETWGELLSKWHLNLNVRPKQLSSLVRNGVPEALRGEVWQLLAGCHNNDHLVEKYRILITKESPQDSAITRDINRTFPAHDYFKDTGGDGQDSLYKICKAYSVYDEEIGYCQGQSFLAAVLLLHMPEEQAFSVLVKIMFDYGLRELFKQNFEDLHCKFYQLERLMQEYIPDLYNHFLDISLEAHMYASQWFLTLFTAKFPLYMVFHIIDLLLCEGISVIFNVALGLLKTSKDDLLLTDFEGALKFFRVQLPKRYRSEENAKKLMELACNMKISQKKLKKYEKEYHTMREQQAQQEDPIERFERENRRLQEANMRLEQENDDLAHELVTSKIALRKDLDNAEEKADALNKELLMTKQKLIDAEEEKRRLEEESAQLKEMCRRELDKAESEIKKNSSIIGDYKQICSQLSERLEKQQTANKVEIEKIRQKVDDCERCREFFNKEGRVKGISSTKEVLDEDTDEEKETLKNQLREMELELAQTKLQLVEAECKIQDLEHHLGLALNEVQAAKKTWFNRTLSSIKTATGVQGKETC
UniProt Q9NP72: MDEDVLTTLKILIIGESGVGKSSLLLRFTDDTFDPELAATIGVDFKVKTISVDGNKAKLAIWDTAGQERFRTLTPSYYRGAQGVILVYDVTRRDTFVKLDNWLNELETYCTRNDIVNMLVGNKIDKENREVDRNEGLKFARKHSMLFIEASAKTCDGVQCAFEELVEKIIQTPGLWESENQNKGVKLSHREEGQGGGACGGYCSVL
UniProt Q9H6Z4: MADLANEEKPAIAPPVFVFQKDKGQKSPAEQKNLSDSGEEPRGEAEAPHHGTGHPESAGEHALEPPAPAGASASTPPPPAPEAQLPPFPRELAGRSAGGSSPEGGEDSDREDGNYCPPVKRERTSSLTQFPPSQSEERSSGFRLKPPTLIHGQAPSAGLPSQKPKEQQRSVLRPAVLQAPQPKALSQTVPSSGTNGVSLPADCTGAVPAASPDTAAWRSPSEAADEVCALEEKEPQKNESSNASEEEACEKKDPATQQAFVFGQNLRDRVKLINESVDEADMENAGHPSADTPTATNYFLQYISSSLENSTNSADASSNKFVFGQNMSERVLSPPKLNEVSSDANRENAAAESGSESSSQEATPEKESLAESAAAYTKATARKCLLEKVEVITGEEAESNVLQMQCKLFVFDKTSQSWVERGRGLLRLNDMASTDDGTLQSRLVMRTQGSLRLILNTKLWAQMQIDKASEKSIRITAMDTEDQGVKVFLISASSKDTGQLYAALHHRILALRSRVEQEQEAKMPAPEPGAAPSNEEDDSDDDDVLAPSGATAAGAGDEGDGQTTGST
UniProt P61020: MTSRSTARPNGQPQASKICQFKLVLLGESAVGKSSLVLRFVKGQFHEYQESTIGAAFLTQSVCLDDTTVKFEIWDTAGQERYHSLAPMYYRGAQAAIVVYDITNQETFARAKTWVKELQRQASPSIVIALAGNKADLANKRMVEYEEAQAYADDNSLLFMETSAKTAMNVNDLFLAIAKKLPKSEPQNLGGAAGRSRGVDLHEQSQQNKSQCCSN
UniProt Q8WWW0: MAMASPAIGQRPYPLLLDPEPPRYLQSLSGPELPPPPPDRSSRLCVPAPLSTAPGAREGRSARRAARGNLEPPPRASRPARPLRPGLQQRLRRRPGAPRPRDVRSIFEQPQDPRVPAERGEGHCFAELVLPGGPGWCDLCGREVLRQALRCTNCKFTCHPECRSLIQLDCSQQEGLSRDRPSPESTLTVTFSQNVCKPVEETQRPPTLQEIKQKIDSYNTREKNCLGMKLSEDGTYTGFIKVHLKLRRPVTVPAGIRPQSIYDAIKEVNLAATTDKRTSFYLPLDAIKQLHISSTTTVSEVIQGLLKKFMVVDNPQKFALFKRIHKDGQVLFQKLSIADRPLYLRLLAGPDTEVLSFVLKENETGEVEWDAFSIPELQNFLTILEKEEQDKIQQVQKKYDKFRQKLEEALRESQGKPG
UniProt P61006: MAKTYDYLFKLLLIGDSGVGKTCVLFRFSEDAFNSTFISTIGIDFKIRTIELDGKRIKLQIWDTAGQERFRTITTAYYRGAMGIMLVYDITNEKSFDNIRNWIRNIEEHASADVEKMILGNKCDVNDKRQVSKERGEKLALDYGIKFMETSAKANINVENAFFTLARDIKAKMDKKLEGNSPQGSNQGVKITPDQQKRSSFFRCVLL
UniProt Q96QF0: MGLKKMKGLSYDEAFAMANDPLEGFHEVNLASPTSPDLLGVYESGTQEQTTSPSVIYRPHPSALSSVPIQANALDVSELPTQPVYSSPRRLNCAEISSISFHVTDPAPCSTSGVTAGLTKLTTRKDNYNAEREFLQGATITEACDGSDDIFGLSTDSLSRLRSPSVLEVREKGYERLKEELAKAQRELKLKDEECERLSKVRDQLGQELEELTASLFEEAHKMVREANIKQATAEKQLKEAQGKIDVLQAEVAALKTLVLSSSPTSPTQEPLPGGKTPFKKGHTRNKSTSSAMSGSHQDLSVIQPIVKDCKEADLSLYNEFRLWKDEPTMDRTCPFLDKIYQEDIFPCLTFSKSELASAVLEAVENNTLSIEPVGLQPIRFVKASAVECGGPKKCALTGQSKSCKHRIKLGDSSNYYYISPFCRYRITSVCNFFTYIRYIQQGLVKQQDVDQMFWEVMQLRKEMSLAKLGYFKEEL
UniProt Q9H2T7: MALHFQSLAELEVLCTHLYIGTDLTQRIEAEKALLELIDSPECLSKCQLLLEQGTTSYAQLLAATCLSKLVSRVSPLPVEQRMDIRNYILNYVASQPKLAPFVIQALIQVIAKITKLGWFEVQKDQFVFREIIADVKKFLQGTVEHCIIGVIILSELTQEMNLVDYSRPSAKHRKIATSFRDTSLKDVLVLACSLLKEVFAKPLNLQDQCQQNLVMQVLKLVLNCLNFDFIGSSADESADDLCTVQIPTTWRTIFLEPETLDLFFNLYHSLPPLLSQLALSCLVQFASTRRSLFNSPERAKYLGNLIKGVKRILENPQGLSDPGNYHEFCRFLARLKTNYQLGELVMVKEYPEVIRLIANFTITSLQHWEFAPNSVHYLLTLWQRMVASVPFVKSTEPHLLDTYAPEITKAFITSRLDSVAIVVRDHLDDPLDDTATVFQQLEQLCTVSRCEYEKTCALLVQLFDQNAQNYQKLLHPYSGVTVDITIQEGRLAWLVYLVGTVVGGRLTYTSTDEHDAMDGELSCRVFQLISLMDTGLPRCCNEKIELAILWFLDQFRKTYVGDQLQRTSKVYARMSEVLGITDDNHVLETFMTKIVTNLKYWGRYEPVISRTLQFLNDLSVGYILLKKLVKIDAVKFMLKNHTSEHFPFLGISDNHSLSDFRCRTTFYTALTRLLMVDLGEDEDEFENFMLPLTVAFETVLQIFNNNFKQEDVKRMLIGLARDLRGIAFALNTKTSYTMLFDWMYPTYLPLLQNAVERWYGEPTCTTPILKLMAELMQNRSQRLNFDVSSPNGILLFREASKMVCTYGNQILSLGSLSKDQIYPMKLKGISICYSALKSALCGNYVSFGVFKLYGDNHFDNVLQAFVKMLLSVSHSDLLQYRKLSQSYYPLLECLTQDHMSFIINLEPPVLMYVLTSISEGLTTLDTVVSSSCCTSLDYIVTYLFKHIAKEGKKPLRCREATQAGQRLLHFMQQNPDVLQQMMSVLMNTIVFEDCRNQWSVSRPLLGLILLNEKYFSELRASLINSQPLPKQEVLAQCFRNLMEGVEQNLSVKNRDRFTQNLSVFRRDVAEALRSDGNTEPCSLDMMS
UniProt Q53S08: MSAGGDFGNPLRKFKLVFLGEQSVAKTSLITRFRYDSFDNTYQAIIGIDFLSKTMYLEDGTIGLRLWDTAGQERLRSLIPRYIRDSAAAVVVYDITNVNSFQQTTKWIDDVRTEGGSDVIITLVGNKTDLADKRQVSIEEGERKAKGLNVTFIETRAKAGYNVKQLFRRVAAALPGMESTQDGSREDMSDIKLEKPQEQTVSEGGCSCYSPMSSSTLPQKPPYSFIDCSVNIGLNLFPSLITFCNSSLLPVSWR
UniProt Q09028, whole entry, looked up: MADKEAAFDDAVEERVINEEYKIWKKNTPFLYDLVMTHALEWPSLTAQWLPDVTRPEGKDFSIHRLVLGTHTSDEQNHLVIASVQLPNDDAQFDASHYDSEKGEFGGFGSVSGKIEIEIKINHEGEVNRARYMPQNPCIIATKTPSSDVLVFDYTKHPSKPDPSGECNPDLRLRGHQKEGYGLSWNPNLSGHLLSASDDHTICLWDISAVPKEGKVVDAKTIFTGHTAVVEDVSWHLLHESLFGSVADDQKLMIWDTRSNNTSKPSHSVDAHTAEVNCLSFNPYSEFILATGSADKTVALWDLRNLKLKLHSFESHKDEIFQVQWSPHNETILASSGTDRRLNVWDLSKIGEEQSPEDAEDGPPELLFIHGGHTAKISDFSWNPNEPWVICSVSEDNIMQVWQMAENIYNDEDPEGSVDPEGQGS
UniProt P61106, whole entry, looked up: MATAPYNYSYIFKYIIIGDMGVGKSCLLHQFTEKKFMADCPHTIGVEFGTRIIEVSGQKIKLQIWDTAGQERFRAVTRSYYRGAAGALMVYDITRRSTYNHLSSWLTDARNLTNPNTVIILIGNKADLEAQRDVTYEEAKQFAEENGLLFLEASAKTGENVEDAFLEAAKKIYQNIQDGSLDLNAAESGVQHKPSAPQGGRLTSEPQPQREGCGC
UniProt Q86YS6: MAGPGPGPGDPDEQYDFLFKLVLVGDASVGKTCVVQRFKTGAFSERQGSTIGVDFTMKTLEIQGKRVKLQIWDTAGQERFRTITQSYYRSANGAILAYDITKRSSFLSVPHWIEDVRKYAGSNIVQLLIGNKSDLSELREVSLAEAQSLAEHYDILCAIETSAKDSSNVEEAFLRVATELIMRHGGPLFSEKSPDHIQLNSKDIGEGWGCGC
UniProt Q15286: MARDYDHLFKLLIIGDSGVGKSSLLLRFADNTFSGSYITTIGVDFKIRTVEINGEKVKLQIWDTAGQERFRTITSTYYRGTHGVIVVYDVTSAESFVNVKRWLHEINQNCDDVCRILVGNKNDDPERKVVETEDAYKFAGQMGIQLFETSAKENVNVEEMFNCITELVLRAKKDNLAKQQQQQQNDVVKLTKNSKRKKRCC

Key:
Assay in all cases: log2 fold change, soluble protein after heating vs DMSO (PISA); higher = thermal stabilisation; K562 cells, 10 uM, 30 min; active = over 0.2 and 3.5 SD of the protein, either way, in both replicates (recomputed)
[1] = compound: CC1=C(C=C(C=C1)NC(=O)C2=CC(=CC=C2)C(C)(C)C#N)NC3=CC4=C(C=C3)N=CN(C4=O)C
Outline: (§1)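 Aliquots of K562 cells (2×10^6 cells/mL) treated with 10 μM compound for 30 min were heated for 3 min over 48°C-58°C. After pooling and extraction in PBS with 0.5% NP-40 at 4°C, soluble protein from a 21,000xg, 90 min spin was quantified by TMTpro 16plex LC-MS/MS with channel sums equalised. Thermal stability is expressed against control samples, from duplicates, as a log2 fold change.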

[2] = compound: CC1=C(C=C(C=C1)NC(=O)C2=CC(=CC=C2)N(C)C)NC(=O)C3=CC=C(C=C3)O
Outline: as §1

[3] = compound: CC1=CC=C(C=C1)SC2=C3C=C(SC3=CN=C2)C(=O)N
Outline: as §1

[4] = compound: CC1=NC(=CC=C1)C2=C(N=C(N2)C(C)(C)C)C3=CC4=NC=CN=C4C=C3
Outline: as §1

Nexturastat A = compound: CCCCN(Cc1ccc(C(=O)NO)cc1)C(=O)Nc1ccccc1 [Nexturastat A]
Outline: as §1

vemurafenib = compound: CCCS(=O)(=O)Nc1ccc(F)c(C(=O)c2c[nH]c3ncc(-c4ccc(Cl)cc4)cc23)c1F [vemurafenib]
Outline: as §1

[5] = compound: CCCS(=O)(=O)Nc1ccc(F)c(C(=O)c2c[nH]c3ncc(Cl)cc23)c1F
Outline: as §1

[6] = compound: CCCc1cc(C)[nH]c(=O)c1CNC(=O)c1cc(-c2ccnc(N3CCN(C)CC3)c2)cc2c1cnn2C(C)C
Outline: as §1

givinostat = compound: CCN(CC)Cc1ccc2cc(COC(=O)Nc3ccc(C(=O)NO)cc3)ccc2c1 [givinostat]
Outline: as §1

barasertib = compound: CCN(CCCOc1ccc2c(Nc3cc(CC(=O)Nc4cccc(F)c4)[nH]n3)ncnc2c1)CCOP(=O)(O)O [barasertib]
Outline: as §1

[7] = compound: CC[C@@H]1C(=O)N(C)c2cnc(Nc3ccc(C(=O)NC4CCN(C)CC4)cc3OC)nc2N1C1CCCC1
Outline: as §1

volasertib = compound: CC[C@@H]1C(=O)N(C)c2cnc(Nc3ccc(C(=O)N[C@H]4CC[C@H](N5CCN(CC6CC6)CC5)CC4)cc3OC)nc2N1C(C)C [volasertib]
Outline: as §1

[8] = compound: CC[C@H](C)N1C=C(C2=C(C=C(C=C21)C3=CN=C(C=C3)N4CCNCC4)C(=O)NCC5=C(C=C(NC5=O)C)C)C
Outline: as §1

epoxomicin = compound: CC[C@H](C)[C@@H](C(=O)N[C@@H]([C@@H](C)O)C(=O)N[C@@H](CC(C)C)C(=O)[C@]1(CO1)C)NC(=O)[C@H]([C@@H](C)CC)N(C)C(=O)C [epoxomicin]
Outline: as §1

[9] = compound: CCn1c(C(=O)N(C2CC2)C2CC2)cc2c3c(ncn3C)c(Nc3cc(C)n(C)n3)nc21
Outline: as §1

[10] = compound: CCn1cc(-c2ccnc3[nH]c(-c4cccc(CN(C)C)c4)cc23)c(-c2ccc(NC(=O)N(C)C)cc2)n1
Outline: as §1

[11] = compound: CN(C)CC(=O)Nc1ccc2[nH]c(=O)c3ccccc3c2c1
Outline: as §1

rosiglitazone = compound: CN(CCOC1=CC=C(C=C1)C[C@H]2C(=O)NC(=O)S2)C3=CC=CC=N3 (racemic) [rosiglitazone]
Outline: as §1

[12] = compound: CN1C2=C(C3=C1C(=O)N(N=C3)CC4=CC(=CC=C4)N)SC(=C2)S(=O)C
Outline: as §1

[13] = compound: CN1CCC(CNc2ccc3ncc(-c4cccc(OC(F)(F)F)c4)n3n2)CC1
Outline: as §1

Measured: log2 fold change

RAB24 (UniProt Q969Q5)
inactive: [1] 0.044 | [2] 0.006 | [3] 0.01 | [4] 0.027 | Nexturastat A -0.043 | vemurafenib 0.021 | [5] 0.039 | [6] -0.016 | givinostat -0.027 | barasertib -0.003 | [7] 0.006 | volasertib -0.009 | [8] -0.008 | epoxomicin 0.057 | [9] -0.01 | [10] 0.015 | [11] 0 | rosiglitazone -0.024 | [12] -0.053 | [13] 0.051

RAN (UniProt P62826)
inactive: [1] -0.017 | [2] 0.004 | [3] -0.042 | [4] -0.025 | Nexturastat A -0.022 | vemurafenib -0.026 | [5] -0.092 | [6] -0.04 | givinostat -0.031 | barasertib -0.004 | [7] 0.005 | volasertib 0.076 | [8] -0.032 | epoxomicin 0.027 | [9] 0.016 | [10] -0.011 | [11] -0.04 | rosiglitazone 0.006 | [12] -0.034 | [13] -0.028

RABGAP1 (UniProt Q9Y3P9)
inactive: [1] 0.009 | [2] -0.007 | [3] 0.002 | [4] -0.018 | Nexturastat A -0.011 | vemurafenib 0 | [5] 0.023 | [6] 0 | givinostat 0.001 | barasertib 0.062 | [7] -0.016 | volasertib -0.108 | [8] 0.049 | epoxomicin 0.042 | [9] -0.017 | [10] -0.076 | [11] -0.008 | rosiglitazone 0.011 | [12] 0.018 | [13] -0.028

RAB18 (UniProt Q9NP72)
inactive: [1] 0.017 | [2] 0.007 | [3] -0.001 | [4] -0.038 | Nexturastat A -0.015 | vemurafenib -0.039 | [5] 0.017 | [6] -0.009 | givinostat -0.003 | barasertib -0.003 | [7] 0.053 | volasertib 0.029 | [8] -0.02 | epoxomicin 0.006 | [9] -0.005 | [10] -0.056 | [11] -0.025 | rosiglitazone -0.017 | [12] -0.044 | [13] 0.038

RANBP3 (UniProt Q9H6Z4)
inactive: [1] -0.003 | [2] 0.013 | [3] 0.042 | [4] 0.052 | Nexturastat A -0.08 | vemurafenib 0.016 | [5] 0.054 | [6] -0.013 | givinostat 0.002 | barasertib -0.015 | [7] -0.006 | volasertib 0.037 | [8] -0.009 | epoxomicin 0.032 | [9] 0.022 | [10] -0.032 | [11] 0.005 | rosiglitazone 0.006 | [12] -0.067 | [13] -0.036

RAB5B (UniProt P61020)
inactive: [1] 0.044 | [2] 0.017 | [3] 0.068 | [4] 0.031 | Nexturastat A 0.02 | vemurafenib 0.029 | [5] 0.092 | [6] -0.064 | givinostat 0.033 | barasertib -0.012 | [7] 0.049 | volasertib -0.022 | [8] -0.034 | epoxomicin -0.032 | [9] 0.05 | [10] -0.085 | [11] -0.024 | rosiglitazone 0.009 | [12] -0.121 | [13] 0.003

RASSF5 (UniProt Q8WWW0)
inactive: [1] -0.014 | [2] -0.123 | [3] -0.01 | [4] 0.011 | Nexturastat A 0.182 | vemurafenib -0.075 | [5] -0.089 | [6] 0.079 | givinostat -0.025 | barasertib -0.004 | [7] 0.066 | volasertib 0.046 | [8] 0.047 | epoxomicin 0.047 | [9] -0.024 | [10] -0.077 | [11] -0.081 | rosiglitazone 0.042 | [12] 0.002 | [13] 0.018

RAB8A isoform 2 (UniProt P61006)
inactive: [1] 0.014 | [2] 0.028 | [3] 0.001 | [4] 0.021 | Nexturastat A -0.158 | vemurafenib 0.028 | [5] -0.019 | [6] -0.017 | givinostat -0.058 | barasertib -0.003 | [7] 0.086 | volasertib 0.003 | [8] -0.026 | epoxomicin 0.003 | [9] 0.048 | [10] 0.006 | [11] -0.008 | rosiglitazone 0.018 | [12] -0.062 | [13] 0.106

RAB8A (UniProt P61006)
inactive: [1] 0.065 | [2] -0.084 | [3] 0.033 | [4] -0.031 | Nexturastat A -0.031 | vemurafenib -0.016 | [5] 0.012 | [6] 0.001 | givinostat -0.011 | barasertib 0.052 | [7] 0.029 | volasertib -0.008 | [8] -0.053 | epoxomicin -0.026 | [9] 0.023 | [10] 0.013 | [11] -0.013 | rosiglitazone -0.025 | [12] -0.08 | [13] 0.07

RAB3IP (UniProt Q96QF0)
inactive: [1] 0.127 | [2] 0.077 | [3] 0.067 | [4] -0.042 | Nexturastat A -0.175 | vemurafenib -0.376 | [5] 0.171 | [6] 0.242 | givinostat -0.045 | barasertib -0.077 | [7] -0.18 | volasertib -0.042 | [8] 0.075 | epoxomicin 0.116 | [9] 0.011 | [10] -0.006 | [11] -0.229 | rosiglitazone 0.051 | [12] -0.022 | [13] -0.007

2 consecutive entries already listed, for reference:
RAB24 (UniProt Q969Q5)
inactive: [1] 0.044 | [2] 0.006 | [3] 0.01 | [4] 0.027 | Nexturastat A -0.043 | vemurafenib 0.021 | [5] 0.039 | [6] -0.016 | givinostat -0.027 | barasertib -0.003 | [7] 0.006 | volasertib -0.009 | [8] -0.008 | epoxomicin 0.057 | [9] -0.01 | [10] 0.015 | [11] 0 | rosiglitazone -0.024 | [12] -0.053 | [13] 0.051

RAN (UniProt P62826)
inactive: [1] -0.017 | [2] 0.004 | [3] -0.042 | [4] -0.025 | Nexturastat A -0.022 | vemurafenib -0.026 | [5] -0.092 | [6] -0.04 | givinostat -0.031 | barasertib -0.004 | [7] 0.005 | volasertib 0.076 | [8] -0.032 | epoxomicin 0.027 | [9] 0.016 | [10] -0.011 | [11] -0.04 | rosiglitazone 0.006 | [12] -0.034 | [13] -0.028

Further results.

RANBP17 (UniProt Q9H2T7)
inactive: [1] 0.116 | [2] 0.05 | [3] 0.861 | [4] 0.117 | Nexturastat A -0.038 | vemurafenib 0.138 | [5] 0.022 | [6] 0.129 | givinostat 0.113 | barasertib 0.079 | [7] -0.184 | volasertib -0.196 | [8] 0.095 | epoxomicin -0.009 | [9] -0.044 | [10] -0.109 | [11] 0.06 | rosiglitazone 0.129 | [12] -0.037 | [13] -0.224

RAB6D (UniProt Q53S08)
inactive: [1] -0.035 | [2] 0.007 | [3] 0.047 | [4] -0.072 | Nexturastat A -0.16 | vemurafenib -0.016 | [5] -0.052 | [6] -0.006 | givinostat 0.057 | barasertib -0.013 | [7] 0.04 | volasertib 0.001 | [8] -0.086 | epoxomicin -0.056 | [9] -0.014 | [10] -0.037 | [11] -0.017 | rosiglitazone 0.076 | [12] 0.044 | [13] 0.029

RBBP4 (UniProt Q09028)
inactive: [1] -0.032 | [2] 0.007 | [3] 0.005 | [4] 0.02 | Nexturastat A -0.013 | vemurafenib -0.023 | [5] -0.008 | [6] -0.049 | givinostat -0.02 | barasertib -0.025 | [7] 0.014 | volasertib -0.015 | [8] -0.032 | epoxomicin 0.017 | [9] -0.012 | [10] -0.016 | [11] 0.021 | rosiglitazone 0.001 | [12] -0.132 | [13] 0.063

RAB14 (UniProt P61106)
inactive: [1] 0 | [2] 0.014 | [3] 0.024 | [4] 0.012 | Nexturastat A -0.047 | vemurafenib 0.001 | [5] 0.018 | [6] -0.021 | givinostat 0 | barasertib -0.024 | [7] 0.03 | volasertib 0.039 | [8] -0.047 | epoxomicin -0.011 | [9] 0.028 | [10] -0.005 | [11] 0.02 | rosiglitazone -0.001 | [12] -0.055 | [13] 0.071

RAB43 (UniProt Q86YS6)
inactive: [1] -0.036 | [2] -0.016 | [3] -0.022 | [4] 0.003 | Nexturastat A 0.035 | vemurafenib -0.065 | [5] -0.019 | [6] -0.023 | givinostat 0.025 | barasertib 0.033 | [7] 0.104 | volasertib 0.006 | [8] -0.064 | epoxomicin 0.022 | [9] -0.025 | [10] -0.078 | [11] -0.07 | rosiglitazone 0.014 | [12] -0.043 | [13] 0.038

RAB35 (UniProt Q15286)
inactive: [1] 0.027 | [2] -0.002 | [3] 0.007 | [4] 0.014 | Nexturastat A -0.091 | vemurafenib -0.015 | [5] -0.043 | [6] -0.039 | givinostat -0.031 | barasertib -0.03 | [7] 0.092 | volasertib 0.091 | [8] -0.061 | epoxomicin 0.009 | [9] 0.098 | [10] 0.001 | [11] -0.008 | rosiglitazone -0.058 | [12] -0.048 | [13] 0.079
